# Test results taken from publication PMC3432483 (Blood Cancer Journal, 2012).
# Biological target: RPS6KA
# Assay: Full dose-response kinase assay
# Assay type: biochemical
structure (smiles),measurement,value
"CN[C@@H]1C[C@H]2O[C@@](C)([C@@H]1OC)n1c3ccccc3c3c4c(c5c6ccccc6n2c5c31)C(=O)NC4 [Staurosporine, staurosporine, reference compound]",IC50 RPS6KA,3 nℳ nM
